From paper PMC7819943, “Rice protein-binding microarrays: a tool to detect cis-acting elements near promoter regions in rice”
Some of the results follow.

target: T1, OsSMF1 (Oryza sativa, UniProt Q6ZLB0 1-436); test: protein-binding microarray (RPBM); PBS, 2% BSA, 51.3 ng/ul salmon testes DNA, 50 uM zinc acetate, 200 nM TF, 25 C, 1 h; high values mean tight binding; settings: protein: recombinant; tags: N-terminal polyhistidine and DsRed monomer fusion (pET32a); chain copies: 2; label: CyDye5-dUTP incorporated in the synthesized complementary strand; 3' TTTTT single-stranded linker to array surface; dsDNA, one strand shown
T1 sequence: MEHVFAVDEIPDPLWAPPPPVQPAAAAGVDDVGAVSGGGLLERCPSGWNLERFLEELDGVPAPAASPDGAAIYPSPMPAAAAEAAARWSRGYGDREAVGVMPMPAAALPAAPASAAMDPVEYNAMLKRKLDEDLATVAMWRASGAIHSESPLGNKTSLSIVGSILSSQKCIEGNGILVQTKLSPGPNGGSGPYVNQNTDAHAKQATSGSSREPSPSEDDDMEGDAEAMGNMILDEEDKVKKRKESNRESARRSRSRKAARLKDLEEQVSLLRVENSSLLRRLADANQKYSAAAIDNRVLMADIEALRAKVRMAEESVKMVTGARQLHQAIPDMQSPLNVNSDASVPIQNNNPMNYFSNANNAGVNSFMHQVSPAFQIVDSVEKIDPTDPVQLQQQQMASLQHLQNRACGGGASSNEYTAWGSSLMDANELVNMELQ
Outline: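 In PBS with 2% BSA, salmon testes DNA and 50 µM zinc acetate, 200 nM protein was incubated on a custom Agilent array at 25 °C for 1 h and then washed off. The array had been made double-stranded by primer extension with Cy5-dUTP and blocked with 2% BSA. The proteins were transcription factors fused N-terminally to polyhistidine and DsRed, expressed in E. coli BL21-CodonPlus and purified on Ni–NTA. The binding signal is per-feature fluorescence intensity (arbitrary units) from an Axon 4000B scanner.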

First: GCTGGACGCGGATGGGCTAAACCGTATTCCCCGTCACTTTCGGAGTCACCTAGTGCAG
Second: GAAATATGTGACACTGATATGTGGGTCACGCGTGCTTACTCGGAGTCACCTAGTGCAG
The binding signal of the first is higher: 4150 fluorescence intensity (a.u.) for the first, 3500 fluorescence intensity (a.u.) for the second.

First: GAGTCCTTGGACCACCTGGATTTTGGCCCGGCCCAAACAACGGAGTCACCTAGTGCAG
Second: GTCCGGGCCTCCTGCCATTACGTGATGATGTGTAAAGGACCGGAGTCACCTAGTGCAG
The binding signal of the first is higher: 18700 fluorescence intensity (a.u.) for the first, 6960 fluorescence intensity (a.u.) for the second.

First: ATGCAATGCATGCCACGCCATGCATCATATCCTCGTCGTCCGGAGTCACCTAGTGCAG
Second: TTTGGACGACGGTTTCAGCTGACGTGACGCCTACATATCTCGGAGTCACCTAGTGCAG
The binding signal of the first is lower: 7760 fluorescence intensity (a.u.) for the first, 8650 fluorescence intensity (a.u.) for the second.

Going from “TCAGTGTACATTCACTAATTAAATTAACAGGTTTGTTCAACGGAGTCACCTAGTGCAG” to “TCCAAGACATTGAGGTTGTTCTTGCTGACAAACTCGTTGCCGGAGTCACCTAGTGCAG”, the binding signal falls from 32900 fluorescence intensity (a.u.) to 3660 fluorescence intensity (a.u.).

First: ATTGGGGAGAGGAGCTGGGCGAGGCGGGGCTTGGGCTCGGCGGAGTCACCTAGTGCAG
Second: CTTATATTACCTGTCAGAATACCAAACCAACCAGGCCGAACGGAGTCACCTAGTGCAG
The binding signal of the first is lower: 3390 fluorescence intensity (a.u.) for the first, 24800 fluorescence intensity (a.u.) for the second.

Going from “GTTGCCTAGGATGTCGATCTTCGGGTCTTGGGTGAGCGTGCGGAGTCACCTAGTGCAG” to “CGCCTCCTCCTCCCCACCTCATCACCACCGCCGCCAACCACGGAGTCACCTAGTGCAG”, the binding signal rises from 3250 fluorescence intensity (a.u.) to 3690 fluorescence intensity (a.u.).

First: ACAGCGCGACGAGACTGACGAATGACGACGCAAGCACAACCGGAGTCACCTAGTGCAG
Second: AATTTGCAATGCTTCTTGCTTGTGATTGTGACGACGATGCCGGAGTCACCTAGTGCAG
The binding signal of the first is lower: 3380 fluorescence intensity (a.u.) for the first, 3720 fluorescence intensity (a.u.) for the second.

First: TCCTGATACTGGCCGACATCAACTTAATTACATCATATCGCGGAGTCACCTAGTGCAG
Second: TCCGTACCGTGTGGAAAGGGTCATCGGGTCAGCTCAGCTGCGGAGTCACCTAGTGCAG
The binding signal of the first is lower: 3150 fluorescence intensity (a.u.) for the first, 3280 fluorescence intensity (a.u.) for the second.

Compared with “CAAAGGATACGATCGGAATAACACGTGTGGTAACCCTTCGCGGAGTCACCTAGTGCAG”, “CTCTCTGTCTCACCGGTATAGAAGCTAGTGACACTAGGCACGGAGTCACCTAGTGCAG” is lower in binding signal: 7080 fluorescence intensity (a.u.) for the first, 3150 fluorescence intensity (a.u.) for the second.

Going from “ACTCTCATGCATATTAGTCATCAAGTTGAATTGGCCCTGACGGAGTCACCTAGTGCAG” to “AGAGTGCGCATGTCCGCAATTGGTGACTCCATCCCGGCCACGGAGTCACCTAGTGCAG”, the binding signal falls from 5110 fluorescence intensity (a.u.) to 3150 fluorescence intensity (a.u.).

Compared with “CGGCGAGGAGGAGGAGGAAGAGCAGCGGGTGGAGCACGGCCGGAGTCACCTAGTGCAG”, “CCAATTCTCAGTGGCTTCTGTATGTAAATCTTGTTGGAAACGGAGTCACCTAGTGCAG” is lower in binding signal: 4350 fluorescence intensity (a.u.) for the first, 3210 fluorescence intensity (a.u.) for the second.

Going from “GCCGCGCAAATCACCACGCCACGCCCCGCCCGCGCGCGTCCGGAGTCACCTAGTGCAG” to “GAATAGCAACCTGTGGGCAGACAATGATGAGGCCAAGAACCGGAGTCACCTAGTGCAG”, the binding signal rises from 3890 fluorescence intensity (a.u.) to 6250 fluorescence intensity (a.u.).

Compared with “CCGCGAGCGCACATCCTCATCCGGCGAGGTCCAGGAGGGGCGGAGTCACCTAGTGCAG”, “TCATCCTTCAAAACGGTACTTGTGTGGCACGTGTATGTCACGGAGTCACCTAGTGCAG” is higher in binding signal: 3540 fluorescence intensity (a.u.) for the first, 6020 fluorescence intensity (a.u.) for the second.

First: CATCACACCCACTTGTCCGCACACAAGAAGAGACCAGCTACGGAGTCACCTAGTGCAG
Second: ATATACATCTACTCCTAAATTATTATTATTATTATTTTCACGGAGTCACCTAGTGCAG
The binding signal of the first is higher: 50600 fluorescence intensity (a.u.) for the first, 3520 fluorescence intensity (a.u.) for the second.

Compared with “TTGCGGCCGTCTCGCGTGGGATGCGTGTCGCCATTTTAATCGGAGTCACCTAGTGCAG”, “GATCTGCCACTATATTTTCTATTAATTTAGAATTTGATACCGGAGTCACCTAGTGCAG” is higher in binding signal: 3290 fluorescence intensity (a.u.) for the first, 4330 fluorescence intensity (a.u.) for the second.

Compared with “TGCTCGCTACCTGACGTGATGCACAAAAGGCCCAGTTTGTCGGAGTCACCTAGTGCAG”, “CGTTGCTCGGGAACACGTTCCGCCACCGACGTCGCCGTCCCGGAGTCACCTAGTGCAG” is lower in binding signal: 3880 fluorescence intensity (a.u.) for the first, 3310 fluorescence intensity (a.u.) for the second.

Compared with “CATCTAGACATCTAGTAGTATTGACGTGTAAGGAGCTGTACGGAGTCACCTAGTGCAG”, “GGCTTTGATGTTTGGTTTCTGATTCCTGAGCTGTACCGATCGGAGTCACCTAGTGCAG” is lower in binding signal: 7550 fluorescence intensity (a.u.) for the first, 4280 fluorescence intensity (a.u.) for the second.

First: TGGCTCCCTGTTCAGTCAAATCTCCTTCCAGATATGCACGCGGAGTCACCTAGTGCAG
Second: ACAGATATCATATCAAAACACAGCAGAGATCGATAGATCTCGGAGTCACCTAGTGCAG
The binding signal of the first is lower: 3200 fluorescence intensity (a.u.) for the first, 3230 fluorescence intensity (a.u.) for the second.

Going from “GCGGGAAGAGTAGAGTGCCACATCATCAATTTTGGCGAAACGGAGTCACCTAGTGCAG” to “TCCTCCTCCTCGTCGTGGTGCGACCCCGCGCCAAGCAATCCGGAGTCACCTAGTGCAG”, the binding signal falls from 14400 fluorescence intensity (a.u.) to 3190 fluorescence intensity (a.u.).

Compared with “GAAGAGGGGAGGGAGCTCCAAAAGGGCGAGAAAGTAAGCGCGGAGTCACCTAGTGCAG”, “ATTTGGAACTACTCACGGCCAACCCAACAGTCACAGTTGGCGGAGTCACCTAGTGCAG” is lower in binding signal: 39400 fluorescence intensity (a.u.) for the first, 3350 fluorescence intensity (a.u.) for the second.

Compared with “GCTCCGAGCTCTCCATTCCCGCGACCCATTGACCCATCGGCGGAGTCACCTAGTGCAG”, “ATGATTTGCATACAGGCGACAACATTCATACTAATTGGAACGGAGTCACCTAGTGCAG” is lower in binding signal: 7370 fluorescence intensity (a.u.) for the first, 3480 fluorescence intensity (a.u.) for the second.
